The target in this experiment is T1, UNC93B1 (WT)-BirA* (human) (UniProt Q9H1C4).
T1 sequence: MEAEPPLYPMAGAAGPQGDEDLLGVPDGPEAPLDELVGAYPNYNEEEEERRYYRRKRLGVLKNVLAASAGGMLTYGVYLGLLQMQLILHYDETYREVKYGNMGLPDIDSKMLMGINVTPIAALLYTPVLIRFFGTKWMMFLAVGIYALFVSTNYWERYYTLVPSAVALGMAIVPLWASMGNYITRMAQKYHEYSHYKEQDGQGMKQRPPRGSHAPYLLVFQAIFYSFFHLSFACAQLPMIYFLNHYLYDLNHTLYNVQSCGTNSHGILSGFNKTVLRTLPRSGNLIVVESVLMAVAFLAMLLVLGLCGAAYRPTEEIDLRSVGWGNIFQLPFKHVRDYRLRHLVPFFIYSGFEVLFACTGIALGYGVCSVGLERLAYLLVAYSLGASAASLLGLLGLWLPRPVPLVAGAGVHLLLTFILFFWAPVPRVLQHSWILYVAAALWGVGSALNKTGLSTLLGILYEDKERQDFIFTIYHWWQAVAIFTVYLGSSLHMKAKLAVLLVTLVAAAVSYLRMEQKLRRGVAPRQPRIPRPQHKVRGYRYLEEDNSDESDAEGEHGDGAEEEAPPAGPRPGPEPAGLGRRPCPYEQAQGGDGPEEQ
Put plainly: proximity labelling.

These are yes or no findings as the source states them, for the method shown. Binding seen in cells or lysates may run through a third protein. These calls come from enrichment with a bait or labelling near it, and not all partners need be listed.

B1: endogenous TLR7 (cleaved forms) (receptor, UniProt P58681 27-1050)
chain: FRWFPKTLPCEVKVNIPEAHVIVDCTDKHLTEIPEGIPTNTTNLTLTINHIPSISPDSFRRLNHLEEIDLRCNCVPVLLGSKANVCTKRLQIRPGSFSGLSDLKALYLDGNQLLEIPQDLPSSLHLLSLEANNIFSITKENLTELVNIETLYLGQNCYYRNPCNVSYSIEKDAFLVMRNLKVLSLKDNNVTAVPTTLPPNLLELYLYNNIIKKIQENDFNNLNELQVLDLSGNCPRCYNVPYPCTPCENNSPLQIHDNAFNSLTELKVLRLHSNSLQHVPPTWFKNMRNLQELDLSQNYLAREIEEAKFLHFLPNLVELDFSFNYELQVYHASITLPHSLSSLENLKILRVKGYVFKELKNSSLSVLHKLPRLEVLDLGTNFIKIADLNIFKHFENLKLIDLSVNKISPSEESREVGFCPNAQTSVDRHGPQVLEALHYFRYDEYARSCRFKNKEPPSFLPLNADCHIYGQTLDLSRNNIFFIKPSDFQHLSFLKCLNLSGNTIGQTLNGSELWPLRELRYLDFSNNRLDLLYSTAFEELQSLEVLDLSSNSHYFQAEGITHMLNFTKKLRLLDKLMMNDNDISTSASRTMESDSLRILEFRGNHLDVLWRAGDNRYLDFFKNLFNLEVLDISRNSLNSLPPEVFEGMPPNLKNLSLAKNGLKSFFWDRLQLLKHLEILDLSHNQLTKVPERLANCSKSLTTLILKHNQIRQLTKYFLEDALQLRYLDISSNKIQVIQKTSFPENVLNNLEMLVLHHNRFLCNCDAVWFVWWVNHTDVTIPYLATDVTCVGPGAHKGQSVISLDLYTCELDLTNLILFSVSISSVLFLMVVMTTSHLFFWDMWYIYYFWKAKIKGYQHLQSMESCYDAFIVYDTKNSAVTEWVLQELVAKLEDPREKHFNLCLEERDWLPGQPVLENLSQSIQLSKKTVFVMTQKYAKTESFKMAFYLSHQRLLDEKVDVIILIFLEKPLQKSKFLQLRKRLCRSSVLEWPANPQAHPYFWQCLKNALTTDNHVAYSQMFKETV
Turning to B1, the binding result was “binds”.

(Values after publication doi:10.1101/2024.09.11.24313360.)
